Hit rate of the full screen: of about 320,000 compounds, about 2,100 (0.66%) were called active. This list was built around the results that the source calls inconclusive (neither active nor inactive); the mix of calls is not that of the screen. Calls follow the shape of the dose curve; as a rule, active = well fitted inhibition curve with a large enough effect in the signal ratio, with a control signal flat (not every such curve was filed as active); inconclusive = small, poorly fitted or top-dose-only effect, or effect the other way, or a change in a side signal; inactive = flat fitted curve, though single readings scatter; the % refers to the signal ratio. Where the call is inconclusive, the potency comes from a doubtful curve fit.
Experiment: qHTS Assay for Lipid Storage Modulators in Drosophila S3 Cells
Conditions: BODIPY lipid droplet fluorescence, 18-24 h, cells fed with added oleic acid; lipid storage change, negative = inhibition: at 46.1 µM (top of the series) unless noted
Procedure, shortened: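 Drosophila S3 cells got compounds at several concentrations plus oleic acid (400 uM solution). Laser-scanning cytometry with 488 nm excitation read lipid droplets at 500-530 nm and cells at 575-640 nm. Percent activity was relative to 20 uM Triacsin C.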
% is scaled to controls: 0 for no effect and ±100 for the full control effect; potency is read from the fitted curve at half-maximal effect.

Row | Structure (SMILES) | lipid storage change, negative = inhibition | Potency | outcome
1 | Cc1nnc2sc(-c3csc4c3CCCC4)nn12 | inconclusive: 76% |  | 
2 | Cc1cc(C)c2c(=O)[nH]c(SCC(=O)NCc3ccccc3)nc2n1 |  | inconclusive: 6.51 µM [activator, single point] | 
3 | CC(c1ccccc1)C1CC(=O)N(CC(=O)O)C1=O (stereo not given) | inconclusive: -23.5% |  | 
4 | O=C(Cc1ccccc1)Nc1ccc(NC(=O)Cc2ccccc2)c(Cl)c1 |  | inconclusive: 10.3 µM [activator, partial curve] | 
5 | COC(=O)c1[nH]c2ccc(C)cc2c1NC(=O)CN1CCC(C)CC1 |  | inconclusive: 0.731 µM [rising, single point] | 
6 | CCc1ccc(NC2=NCC(=O)N2c2ccc3c(c2)OCCO3)cc1 | inconclusive: -3.68% |  | 
7 | Cc1ccc(S(=O)(=O)N(C)CC(=O)OCC(=O)NC(=O)NC(C)C)cc1 |  | inconclusive: 4.61 µM [activator, single point] | 
8 | CC(=O)Nc1ccc(C(=O)N/C(=C/c2ccccc2)C(=O)NCc2ccco2)cc1 |  | inconclusive: 6.51 µM [falling, single point] | 
9 | CCOc1ccc(NC(=O)CN2CCc3cc4c(cc3C2)OCCCO4)cc1OCC | inconclusive: -59.3% |  | 
10 | CC(Sc1cnccn1)C(=O)O (stereo not given) | inactive: -23.4% |  | 
11 | COc1ccccc1N1CCN(C(=O)c2c(C)cc(=O)oc2C)CC1 |  |  | inactive [at 46.1 µM]
12 | CC(=O)Nc1ccc(S(=O)(=O)Nc2nc3ccccc3nc2Nc2ccc(N)cc2)cc1 | inconclusive: 24% |  | 
13 | O=C(O)C1=CC[C@@H](c2ccc(Cl)cc2)N(S(=O)(=O)c2ccc(Cl)cc2)[C@H]1c1ccccc1 |  | inconclusive: 2.31 µM [activator, partial curve] | 
14 | CCOC(=O)C1=C(C)NC(=O)NC1c1cn(-c2ccccc2)nc1-c1cccs1 (stereo not given) | inconclusive: -4.45% |  | 
15 | COc1ccc(C2C3=C(N=C4SCC(=O)N42)c2ccccc2CC3)cc1 (stereo not given) | inconclusive: -5.26% |  | 
16 | Cc1nc2cc(-c3ccc(Cl)cc3)nn2c(C)c1CCC(=O)NCc1ccco1 | inconclusive: -42.8% |  | 
17 | COc1cccc(-c2nnn(CC(=O)N3CCC(C)CC3)n2)c1 |  | inconclusive: 29.1 µM [activator, single point] | 
18 | COc1ccccc1NC(=O)CSc1ccc2nnc(-c3ccc(C)cc3)n2n1 |  | inconclusive: 29.1 µM [falling, partial curve, poor fit] | 
19 | CC(C)[C@H](NS(=O)(=O)c1ccccc1)C(=O)OCC(=O)Nc1ccccc1Sc1ccccc1 |  | inconclusive: 29.1 µM [falling, single point] | 
20 | CCCN1C(=O)C(O)(C2CC(=O)CC(C)(C)O2)c2ccccc21 (stereo not given) | inconclusive: -48.8% |  | 

A different layout for two compounds above.
CCOC(=O)C1=C(C)NC(=O)NC1c1cn(-c2ccccc2)nc1-c1cccs1 (stereo not given)
  lipid storage change, negative = inhibition: inconclusive: -4.45%
COc1ccc(C2C3=C(N=C4SCC(=O)N42)c2ccccc2CC3)cc1 (stereo not given)
  lipid storage change, negative = inhibition: inconclusive: -5.26%

Source: PubChem BioAssay AID2685 (National Center for Advancing Translational Sciences (NCATS), 2010)
